Record: PubChem BioAssay AID1224830 (NIAID, 2016)
This is one part, drawn at random, of about 18,000 reagents tested. Of all reagents, about 2,900 (16%) got an active call. 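Calls are made per well; low scores hint the gene aids the LPS response, high scores that it dampens it.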 Reagents against one gene are numbered here. Repeated entries: four replicate wells of each siRNA pool. No sequences are given here.

Aim: 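Host factors that control LPS-induced TNF expression in human macrophages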 (primary screen)
System: human THP-1 monocytic leukaemia cells, TNF dual-luciferase reporter clone, PMA-differentiated to macrophage-like cells
Knock-down reagent: siRNA pool against human genes, 50 nM
Duration: LPS for 4 h, given about 3 days after siRNA transfection
Conditions: bacterial LPS (TLR4 ligand), 10 ng/ml
Read-out: 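Ratio of firefly to renilla light, scaled to the plate median and expressed as a robust z-score per replicate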
Reading the numbers: TNF reporter robust z-score: higher = stronger TNF reporter response to LPS
Active means: 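a well is active when its z-score exceeds 2.8 or falls below -1.5; control wells carry no call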

Gene | reagent | TNF reporter robust z-score | call
CD300LG | 1 | 0.41 | inactive
CD300LG | 1 | -0.3 | inactive
CD300LG | 1 | 2.22 | inactive
CD300LG | 1 | 1.4 | inactive
SNRPE | 1 | 0.6 | inactive
SNRPE | 1 | 0.48 | inactive
SNRPE | 1 | 0.15 | inactive
SNRPE | 1 | 0.97 | inactive
AK9 | 1 | -0.06 | inactive
AK9 | 1 | 0.54 | inactive
AK9 | 1 | 0.81 | inactive
AK9 | 2 | 0.25 | inactive
AK9 | 2 | 1.78 | inactive
AK9 | 2 | -0.49 | inactive
AK9 | 2 | -1.15 | inactive
AK9 | 3 | 0.4 | inactive
AK9 | 3 | 0.43 | inactive
AK9 | 3 | 0.39 | inactive
AK9 | 3 | 0.38 | inactive
BICD2 | 1 | 1.59 | inactive
BICD2 | 1 | 2.04 | inactive
BICD2 | 1 | 2.3 | inactive
BICD2 | 1 | 1.58 | inactive
SPIN2B | 1 | -0.28 | inactive
SPIN2B | 1 | -0.2 | inactive
SPIN2B | 1 | -0.9 | inactive
SPIN2B | 1 | -0.43 | inactive
GAB4 | 1 | -0.69 | inactive
GAB4 | 1 | -0.92 | inactive
GAB4 | 1 | -0.54 | inactive
GAB4 | 1 | -0.65 | inactive
YJU2B | 1 | -0.39 | inactive
YJU2B | 1 | -0.67 | inactive
YJU2B | 1 | -1.17 | inactive
YJU2B | 1 | -1.74 | active
POLG2 | 1 | 0.25 | inactive
POLG2 | 1 | 0.56 | inactive
POLG2 | 1 | 0.44 | inactive
POLG2 | 1 | -0.25 | inactive
E2F1 | 1 | 0.22 | inactive
E2F1 | 1 | 0.83 | inactive
E2F1 | 1 | 0.75 | inactive
E2F1 | 1 | 1.16 | inactive
NUP98 | 1 | -0.57 | inactive
NUP98 | 1 | -0.49 | inactive
NUP98 | 1 | 0.56 | inactive
NUP98 | 1 | -0.05 | inactive
EFCAB7 | 1 | 1.29 | inactive
EFCAB7 | 1 | 1.5 | inactive
EFCAB7 | 1 | 0.34 | inactive
EFCAB7 | 1 | 0.13 | inactive
DEFB127 | 1 | 0.36 | inactive
DEFB127 | 1 | 0.46 | inactive
DEFB127 | 1 | 0.31 | inactive
DEFB127 | 1 | 0.43 | inactive
PPP1R12B | 1 | -0.45 | inactive
PPP1R12B | 1 | 1 | inactive
PPP1R12B | 1 | 0.14 | inactive
PPP1R12B | 1 | -1.38 | inactive
RCC2 | 1 | 0.55 | inactive
RCC2 | 1 | 1.65 | inactive
RCC2 | 1 | -0.07 | inactive
RCC2 | 1 | 1.81 | inactive
MUTYH | 1 | -0.76 | inactive
MUTYH | 1 | -0.38 | inactive
MUTYH | 1 | -0.72 | inactive
MUTYH | 1 | -0.85 | inactive

Continued (5 carried over from the part before).
Gene | reagent | TNF reporter robust z-score | call
RCC2 | 1 | 1.81 | inactive
MUTYH | 1 | -0.76 | inactive
MUTYH | 1 | -0.38 | inactive
MUTYH | 1 | -0.72 | inactive
MUTYH | 1 | -0.85 | inactive
ADAM17 | 1 | -0.61 | inactive
ADAM17 | 1 | 0.76 | inactive
ADAM17 | 1 | -0.1 | inactive
ADAM17 | 1 | 0 | inactive
YBX1 | 1 | -1.37 | inactive
YBX1 | 1 | 0.01 | inactive
YBX1 | 1 | -1.05 | inactive
YBX1 | 1 | -0.86 | inactive
ADPRS | 1 | -1.19 | inactive
ADPRS | 1 | -1.17 | inactive
ADPRS | 1 | -0.49 | inactive
ADPRS | 1 | -0.28 | inactive
A1BG | 1 | -0.17 | inactive
A1BG | 1 | -0.64 | inactive
A1BG | 1 | -0.42 | inactive
A1BG | 1 | 0.43 | inactive
IQSEC1 | 1 | -0.3 | inactive
IQSEC1 | 1 | -0.84 | inactive
IQSEC1 | 1 | -1.14 | inactive
IQSEC1 | 1 | 0.24 | inactive
TMCO5A | 1 | -1.98 | active
TMCO5A | 1 | -1.12 | inactive
TMCO5A | 1 | -0.93 | inactive
TMCO5A | 1 | -1.39 | inactive
NDUFB6 | 1 | – | inactive
NDUFB6 | 1 | -1.07 | inactive
NDUFB6 | 1 | -1.01 | inactive
NDUFB6 | 1 | -0.93 | inactive
NDUFB6 | 1 | -1.29 | inactive
RPL26L1 | 1 | -1.13 | inactive
RPL26L1 | 1 | -1.61 | active
RPL26L1 | 1 | -1.73 | active
RPL26L1 | 1 | -0.6 | inactive
KEAP1 | 1 | 0.31 | inactive
KEAP1 | 1 | -0.47 | inactive
KEAP1 | 1 | -0.52 | inactive
KEAP1 | 1 | -0.18 | inactive
DGCR6L | 1 | -0.51 | inactive
DGCR6L | 1 | -0.02 | inactive
DGCR6L | 1 | 1.06 | inactive
DGCR6L | 1 | -0.38 | inactive
SOX4 | 1 | – | inactive
SOX4 | 1 | 1.21 | inactive
SOX4 | 1 | 0.75 | inactive
SOX4 | 1 | 2.16 | inactive
SOX4 | 1 | 0.46 | inactive
